Drawing on paper PMC5323174, this text covers binding for one substance.

Sequences of proteins named here, by UniProt entry; tags and fusion partners are left off.
UniProt Q92793: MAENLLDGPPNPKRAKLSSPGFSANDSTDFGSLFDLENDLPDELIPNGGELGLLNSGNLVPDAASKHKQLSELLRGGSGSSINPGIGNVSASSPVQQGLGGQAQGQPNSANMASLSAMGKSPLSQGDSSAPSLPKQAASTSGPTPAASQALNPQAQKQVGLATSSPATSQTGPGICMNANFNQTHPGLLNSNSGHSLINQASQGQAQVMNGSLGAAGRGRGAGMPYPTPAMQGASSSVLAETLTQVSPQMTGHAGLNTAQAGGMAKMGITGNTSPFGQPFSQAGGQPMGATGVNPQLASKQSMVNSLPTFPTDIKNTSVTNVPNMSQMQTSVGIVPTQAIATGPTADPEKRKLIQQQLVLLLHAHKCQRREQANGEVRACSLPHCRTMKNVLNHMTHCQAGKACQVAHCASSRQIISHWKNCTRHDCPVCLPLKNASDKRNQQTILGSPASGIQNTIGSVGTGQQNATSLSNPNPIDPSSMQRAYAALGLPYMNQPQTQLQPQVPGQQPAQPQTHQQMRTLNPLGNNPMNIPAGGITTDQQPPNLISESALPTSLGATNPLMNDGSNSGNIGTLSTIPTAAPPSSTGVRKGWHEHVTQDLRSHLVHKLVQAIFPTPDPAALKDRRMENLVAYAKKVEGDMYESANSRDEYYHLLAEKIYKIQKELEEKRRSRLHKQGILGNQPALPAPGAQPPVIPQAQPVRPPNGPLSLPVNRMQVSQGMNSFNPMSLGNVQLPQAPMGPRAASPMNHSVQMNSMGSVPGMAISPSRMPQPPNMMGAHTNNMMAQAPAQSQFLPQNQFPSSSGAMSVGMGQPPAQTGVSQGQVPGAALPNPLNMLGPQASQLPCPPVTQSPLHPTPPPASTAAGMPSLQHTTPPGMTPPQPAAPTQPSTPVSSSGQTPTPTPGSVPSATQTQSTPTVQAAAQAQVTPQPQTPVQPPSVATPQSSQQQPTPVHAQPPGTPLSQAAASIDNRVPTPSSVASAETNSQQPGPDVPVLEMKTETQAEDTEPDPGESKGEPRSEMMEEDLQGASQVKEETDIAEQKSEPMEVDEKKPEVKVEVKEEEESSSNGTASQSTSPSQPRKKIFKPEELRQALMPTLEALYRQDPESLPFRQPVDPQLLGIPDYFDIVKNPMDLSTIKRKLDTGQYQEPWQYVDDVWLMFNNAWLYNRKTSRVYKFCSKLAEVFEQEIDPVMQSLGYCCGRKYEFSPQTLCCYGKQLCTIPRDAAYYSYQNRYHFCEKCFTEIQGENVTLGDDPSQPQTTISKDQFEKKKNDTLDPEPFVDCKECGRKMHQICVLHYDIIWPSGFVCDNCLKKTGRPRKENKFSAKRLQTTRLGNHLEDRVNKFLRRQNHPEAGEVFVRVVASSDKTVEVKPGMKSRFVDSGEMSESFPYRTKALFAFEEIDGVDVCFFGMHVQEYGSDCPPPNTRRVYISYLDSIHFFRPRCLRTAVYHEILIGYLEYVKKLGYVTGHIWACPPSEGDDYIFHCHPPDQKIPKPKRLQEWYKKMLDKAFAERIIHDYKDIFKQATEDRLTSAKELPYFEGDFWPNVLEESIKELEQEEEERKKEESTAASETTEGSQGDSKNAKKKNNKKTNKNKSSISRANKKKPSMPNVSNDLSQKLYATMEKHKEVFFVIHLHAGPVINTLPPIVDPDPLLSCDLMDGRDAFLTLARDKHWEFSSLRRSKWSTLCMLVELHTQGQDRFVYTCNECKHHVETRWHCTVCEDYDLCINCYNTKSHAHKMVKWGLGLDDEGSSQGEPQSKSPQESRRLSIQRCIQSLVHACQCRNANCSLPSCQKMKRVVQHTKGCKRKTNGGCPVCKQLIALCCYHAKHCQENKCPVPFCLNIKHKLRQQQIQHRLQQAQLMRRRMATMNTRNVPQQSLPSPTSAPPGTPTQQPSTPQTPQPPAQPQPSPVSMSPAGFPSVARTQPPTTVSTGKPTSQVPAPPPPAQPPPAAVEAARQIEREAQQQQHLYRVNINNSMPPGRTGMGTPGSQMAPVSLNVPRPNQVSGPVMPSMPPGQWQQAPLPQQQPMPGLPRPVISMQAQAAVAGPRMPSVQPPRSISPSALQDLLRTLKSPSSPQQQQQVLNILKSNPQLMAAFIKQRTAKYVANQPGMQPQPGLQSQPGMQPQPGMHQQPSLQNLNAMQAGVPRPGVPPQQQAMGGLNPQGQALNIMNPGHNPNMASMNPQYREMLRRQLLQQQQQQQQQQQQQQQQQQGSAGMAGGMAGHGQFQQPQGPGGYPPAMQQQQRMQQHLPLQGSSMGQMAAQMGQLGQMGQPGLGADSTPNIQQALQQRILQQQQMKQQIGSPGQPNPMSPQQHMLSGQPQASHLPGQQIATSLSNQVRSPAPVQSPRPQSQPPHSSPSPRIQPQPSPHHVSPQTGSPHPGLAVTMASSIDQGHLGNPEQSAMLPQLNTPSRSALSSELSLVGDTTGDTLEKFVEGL
UniProt Q15291: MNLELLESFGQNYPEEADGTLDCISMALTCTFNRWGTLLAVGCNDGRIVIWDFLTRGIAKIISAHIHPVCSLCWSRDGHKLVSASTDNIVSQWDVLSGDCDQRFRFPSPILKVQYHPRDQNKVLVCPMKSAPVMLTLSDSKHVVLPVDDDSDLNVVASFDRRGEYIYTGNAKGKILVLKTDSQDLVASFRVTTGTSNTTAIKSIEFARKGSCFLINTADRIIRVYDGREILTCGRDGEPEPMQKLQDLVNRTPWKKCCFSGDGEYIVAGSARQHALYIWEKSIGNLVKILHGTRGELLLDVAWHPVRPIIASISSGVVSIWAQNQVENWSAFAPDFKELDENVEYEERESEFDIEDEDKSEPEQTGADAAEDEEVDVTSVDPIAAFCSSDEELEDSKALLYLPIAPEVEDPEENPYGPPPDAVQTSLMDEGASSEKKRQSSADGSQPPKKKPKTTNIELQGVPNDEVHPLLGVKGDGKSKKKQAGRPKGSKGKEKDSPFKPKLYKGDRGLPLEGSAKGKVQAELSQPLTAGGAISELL

For this assay, the target named is CBP (CREBBP, CREB binding protein) (human (endogenous in DU145)) (UniProt Q92793). Briefly: co-IP; antibodies (5 ug/reaction) coupled to Protein A/G magnetic beads and cross-linked with DSS; lysate from 4,000,000 DU145 cells incubated with TGF-b1 for 24 h; 2 h at room temperature; low pH elution; Western blot; isotype IgG as negative control. Background: In western blotting, separated proteins are transferred to a membrane and probed.

These are yes or no findings as the source states them, for the method shown. Binding seen in cells or lysates may run through a third protein. Some entries that bind do so weakly or less than the wild type.

Take “RbBP5 (Retinoblastoma Binding Protein 5) (from UniProt Q15291 1-538)”: the binding entry was “binds”.
